Tests used:
A549/K1.5 cells = test: Live cell fluorescent imaging (lysosomal localization and photodestruction); assay type: cell-based, Human
Description: Lysosomes and mitochondria were stained by incubating the cells 100 nM LysoTracker® Red or 100 nM MitoTracker® Red, respectively, for 1 hour. For subcellular localization of C-1330, cells were also stained with 10 μM C-1330 for 30 minutes.
Nuclear staining was performed prior to fluorescence imaging by replacing the growth medium with medium containing 2 μg/ml Hoechst 33342, followed by incubation for 10 minutes. Prior to nuclear staining, A549/K1.5 cells were incubated for 1 hour with 10 μM fumitremorgin C (FTC) to prevent efflux of Hoechst 33342 by ABCG2.
Live cell fluorescent imaging was performed using an Axiovert 200 inverted fluorescence microscope (Carl Zeiss) equipped with a digital camera. […] Light intensity was maintained at 12.5% of the maximum. The magnification used was ×630.
Cells were pre-incubated with 10 mM ammonium chloride for 30 minutes or with 1 μM bafilomycin A1 for 60 minutes, prior to being incubated with 10 μM C-1330 for 30 minutes as described hereinabove. Ammonium chloride and bafilomycin A1 remained present during the incubation with C-1330.
A549/K1.5 cells were incubated with 10 μM doxorubicin for 30 minutes, and then observed and illuminated (at 470 nm) by live cell fluorescent imaging as described in the Materials and Methods section. Upon illumination, the cells were photographed every second, in order to observe changes in the cells over time.

[1] = Superoxide detection by EPR spin trapping with DMPO; assay type: physicochemical; conditions: DMSO/H2O (9:1); 1 mM NADH; 400-490 nm light
[2] = Singlet oxygen luminescence detection; assay type: physicochemical; conditions: 355 nm pulsed laser; acetonitrile and DMSO solutions; 1270 nm

Row | Compound | lysosomal accumulation on co-treatment with ABCG2 inhibitor (A549/K1.5 cells; MDR cells, 20 μM C-1311 + 10 μM fumitremorgin C, 2 hours) | EPR signal of DMPO-superoxide spin adduct upon irradiation [1] | singlet oxygen luminescence upon photoexcitation [2] | subcellular localization before illumination (A549/K1.5 cells; A549/K1.5, 10 μM, 30 minutes)
1 | CCN(CC)CCNc1ccc2ncn3c4ccc(O)cc4c(=O)c1c23 [C-1311] | lysosomal accumulation of C-1311 | – | – | –
2 | COc1ccc2c(c1)c(=O)c1c(NCCCN(C)C)ccc3nc(C)n2c31 [C-1375] | – | increased overtime | measurable luminescence which was linearly correlated to the intensity of irradiation | –
3 | CCN(CC)CCCNc1ccc2nc(C)n3c4ccc(OC)cc4c(=O)c1c23 [C-1379] | – | increased overtime | measurable luminescence which was linearly correlated to the intensity of irradiation | –
4 | COc1cccc2c1C(=O)c1c(O)c3c(c(O)c1C2=O)C[C@@](O)(C(=O)CO)C[C@@H]3O[C@H]1C[C@H](N)[C@H](O)[C@H](C)O1 [doxorubicin, reference compound] | – | – | – | accumulates in lysosomes

Reference: patent US8630703B2, “Treatment utilizing hydrophobic weak bases chemotherapeutic agents and illumination” (Technion Research & Development Foundation Limited, priority 2011, dated 2014)
